Measurements published in patent publication US8895504B2, “Amylin derivatives” (priority 2008, dated 2014).
At least one structure is not confirmed: it was looked up by name or label, or the drawing left a doubt. Some entries repeat one wording, which the source may state once for all of them. *1 amine or outer side, *2 acyl side, *3 side chain or, on linkers, in order; H or OH if unused. Where a SMILES comes first, the peptide text is derived from it. Bridges are numbered along the chain shown (N, C = ends). The star is where a group is joined. C20 diacid = O=C(O)CCCCCCCCCCCCCCCCCCC(=O)*; γGlu = O=C(O)[C@H](CCC(=O)[*:2])N[*:1]

Tested on: food intake
Experiment: Pharmacological Assay (I) - efficacy testing on appetite, ad libitum fed rat model
Format: in vivo, Sprague Dawley (SD) rats
Conditions: 30 nmol/kg vs vehicle, ad libitum fed rats, n=5-7, 0-48 hours
Text: Assays Pharmacological Assay (I)—Experimental Protocol for Efficacy Testing on Appetite with an Amylin Derivative, Using an Ad Libitum Fed Rat Model. Sprague Dawley (SD) rats from Taconic Europe, Denmark are used for the experiments. The rats have a body weight 200-250 g at the start of experiment. The rats arrive at least 10-14 days before start of experiment to allow acclimatization to experimental settings. During this period the animals are handled at least 2 times. After arrival rats are housed individually for one week in a reversed light/dark phase (meaning that lights are off during daytime and on during nighttime) for two weeks. Since rats are normally active and eat their major part of their daily food intake during the dark period, rats are dosed in the morning right before lights are turned off. This set-up results in the lowest data variation and highest test sensitivity. The experiment is conducted in the rats' home cages and rats have free access to food and water throughout the acclimatization period and the experiment period. Each dose of derivative is tested in a group of 5-8 rats. A vehicle group of 6-8 rats is included in each set of testing. Rats are dosed once according to body weight with a 0.01-3 mg/kg solution administered intraperitoneally (ip), orally (po) or subcutaneously (sc). The time of dosing is recorded for each group. After dosing, the rats are returned to their home cages, where they then have access to food and water. The food consumption is recorded individually continuously by on-line registration or manually every hour for 7 hours, and then after 24 h and sometimes 48 h. At the end of the experimental session, the animals are euthanized. The individual data are recorded in Microsoft excel sheets. Outliers are excluded after applying the Grubbs statistical evaluation test for outliers, and the result is presented graphically using the GraphPad Prism program.

| Compound | food intake over a period of 48 hours |
| --- | --- |
| CC[C@H](C)[C@H](NC(=O)[C@@H]1CCCN1C(=O)CNC(=O)[C@H](Cc1ccccc1)NC(=O)[C@H](CC(N)=O)NC(=O)[C@H](CC(N)=O)NC(=O)[C@H](CO)NC(=O)[C@H](CO)NC(=O)[C@H](Cc1c[nH]cn1)NC(=O)[C@H](Cc1c[nH]cn1)NC(=O)[C@H](CC(C)C)NC(=O)[C@H](Cc1ccccc1)NC(=O)[C@H](CC(N)=O)NC(=O)[C@H](C)NC(=O)[C@H](CC(C)C)NC(=O)[C@H](CCCNC(=N)N)NC(=O)[C@H](CCC(N)=O)NC(=O)[C@@H](NC(=O)[C@H](C)NC(=O)[C@@H]1CSSC[C@H](NC(=O)[C@H](Cc2c[nH]cn2)NC(=O)[C@H](CCCNC(=N)N)NC(=O)[C@H](Cc2c[nH]cn2)NC(=O)[C@H](CCC(=O)O)NC(=O)CC[C@H](NC(=O)CCCCCCCCCCCCCCCCCCC(=O)O)C(=O)O)C(=O)N[C@@H](CC(N)=O)C(=O)N[C@@H]([C@@H](C)O)C(=O)N[C@@H](C)C(=O)N[C@@H]([C@@H](C)O)C(=O)N1)[C@@H](C)O)C(=O)N[C@@H](CC(C)C)C(=O)N1CCC[C@H]1C(=O)N1CCC[C@H]1C(=O)N[C@H](C(=O)N[C@@H](CC(N)=O)C(=O)N[C@H](C(=O)NCC(=O)N[C@@H](CO)C(=O)N[C@@H](CC(N)=O)C(=O)N[C@H](C(=O)N[C@@H](Cc1ccc(O)cc1)C(N)=O)[C@@H](C)O)C(C)C)[C@@H](C)O [Example 66, N-alpha-[(S)-4-Carboxy-4-(19-carboxynonadecanoylamino)butyryl]-Glu-His-Arg-[His1,His17]-pramlintide] ({C20 diacid-γGlu}-EHRHCNTATCATQRLANFLHHSSNNFGPILPPTNVGSNTY-NH2; disulfide 5-10) | effectively reducing food intake |
| CC[C@H](C)[C@H](NC(=O)[C@@H]1CCCN1C(=O)CNC(=O)[C@H](Cc1ccccc1)NC(=O)[C@H](CC(N)=O)NC(=O)[C@H](CC(N)=O)NC(=O)[C@H](CO)NC(=O)[C@H](CO)NC(=O)[C@H](Cc1c[nH]cn1)NC(=O)[C@H](Cc1c[nH]cn1)NC(=O)[C@H](CC(C)C)NC(=O)[C@H](Cc1ccccc1)NC(=O)[C@H](CC(N)=O)NC(=O)[C@H](C)NC(=O)[C@H](CC(C)C)NC(=O)[C@H](CCCNC(=N)N)NC(=O)[C@H](CCC(N)=O)NC(=O)[C@@H](NC(=O)[C@H](C)NC(=O)[C@@H]1CSSC[C@H](NC(=O)[C@H](CCCCN)NC(=O)[C@H](Cc2c[nH]cn2)NC(=O)CC[C@H](NC(=O)CCCCCCCCCCCCCCCCCCC(=O)O)C(=O)O)C(=O)N[C@@H](CC(N)=O)C(=O)N[C@@H]([C@@H](C)O)C(=O)N[C@@H](C)C(=O)N[C@@H]([C@@H](C)O)C(=O)N1)[C@@H](C)O)C(=O)N[C@@H](CC(C)C)C(=O)N1CCC[C@H]1C(=O)N1CCC[C@H]1C(=O)N[C@H](C(=O)N[C@@H](CC(N)=O)C(=O)N[C@H](C(=O)NCC(=O)N[C@@H](CO)C(=O)N[C@@H](CC(N)=O)C(=O)N[C@H](C(=O)N[C@@H](Cc1ccc(O)cc1)C(N)=O)[C@@H](C)O)C(C)C)[C@@H](C)O [Example 28, N-alpha-[(S)-4-Carboxy-4-(19-carboxynonadecanoylamino)butyryl]-His-[His17]-pramlintide] ({C20 diacid-γGlu}-HKCNTATCATQRLANFLHHSSNNFGPILPPTNVGSNTY-NH2; disulfide 3-8) | effectively reducing food intake |
| CC[C@H](C)[C@H](NC(=O)[C@@H]1CCCN1C(=O)CNC(=O)[C@H](Cc1ccccc1)NC(=O)[C@H](CC(N)=O)NC(=O)[C@H](CC(N)=O)NC(=O)[C@H](CO)NC(=O)[C@H](CO)NC(=O)[C@H](Cc1c[nH]cn1)NC(=O)[C@H](CCCNC(=N)N)NC(=O)[C@H](CC(C)C)NC(=O)[C@H](Cc1ccccc1)NC(=O)[C@H](CC(N)=O)NC(=O)[C@H](C)NC(=O)[C@H](CC(C)C)NC(=O)[C@H](CCCNC(=N)N)NC(=O)[C@H](CCC(N)=O)NC(=O)[C@@H](NC(=O)[C@H](C)NC(=O)[C@@H]1CSSC[C@H](NC(=O)CC[C@H](NC(=O)CCCCCCCCCCCCCCCCCCC(=O)O)C(=O)O)C(=O)N[C@@H](CC(N)=O)C(=O)N[C@@H]([C@@H](C)O)C(=O)N[C@@H](C)C(=O)N[C@@H]([C@@H](C)O)C(=O)N1)[C@@H](C)O)C(=O)N[C@@H](CC(C)C)C(=O)N1CCC[C@H]1C(=O)N1CCC[C@H]1C(=O)N[C@H](C(=O)N[C@@H](CC(N)=O)C(=O)N[C@H](C(=O)NCC(=O)N[C@@H](CO)C(=O)N[C@@H](CC(N)=O)C(=O)N[C@H](C(=O)N[C@@H](Cc1ccc(O)cc1)C(N)=O)[C@@H](C)O)C(C)C)[C@@H](C)O [Example 14, N-alpha-[(S)-4-Carboxy-4-(19-carboxynonadecanoylamino)butyryl]-[Arg17]-pramlintide (2-37)] ({C20 diacid-γGlu}-CNTATCATQRLANFLRHSSNNFGPILPPTNVGSNTY-NH2; disulfide 1-6) | effectively reducing food intake |
| CC[C@H](C)[C@H](NC(=O)[C@@H]1CCCN1C(=O)CNC(=O)[C@H](Cc1ccccc1)NC(=O)[C@H](CC(N)=O)NC(=O)[C@H](CC(N)=O)NC(=O)[C@H](CO)NC(=O)[C@H](CO)NC(=O)[C@H](Cc1c[nH]cn1)NC(=O)[C@H](Cc1c[nH]cn1)NC(=O)[C@H](CC(C)C)NC(=O)[C@H](Cc1ccccc1)NC(=O)[C@H](CC(N)=O)NC(=O)[C@H](C)NC(=O)[C@H](CC(C)C)NC(=O)[C@H](CCCNC(=N)N)NC(=O)[C@H](CCC(N)=O)NC(=O)[C@@H](NC(=O)[C@H](C)NC(=O)[C@@H]1CSSC[C@H](NC(=O)[C@H](CCCCN)NC(=O)[C@H](CCCNC(=N)N)NC(=O)CC[C@H](NC(=O)CCCCCCCCCCCCCCCCCCC(=O)O)C(=O)O)C(=O)N[C@@H](CC(N)=O)C(=O)N[C@@H]([C@@H](C)O)C(=O)N[C@@H](C)C(=O)N[C@@H]([C@@H](C)O)C(=O)N1)[C@@H](C)O)C(=O)N[C@@H](CC(C)C)C(=O)N1CCC[C@H]1C(=O)N1CCC[C@H]1C(=O)N[C@H](C(=O)N[C@@H](CC(N)=O)C(=O)N[C@H](C(=O)NCC(=O)N[C@@H](CO)C(=O)N[C@@H](CC(N)=O)C(=O)N[C@H](C(=O)N[C@@H](Cc1ccc(O)cc1)C(N)=O)[C@@H](C)O)C(C)C)[C@@H](C)O [Example 17, N-alpha-[(S)-4-Carboxy-4-(19-carboxynonadecanoylamino)butyryl]-Arg-[His17]-pramlintide] ({C20 diacid-γGlu}-RKCNTATCATQRLANFLHHSSNNFGPILPPTNVGSNTY-NH2; disulfide 3-8) | effectively reducing food intake |
| CC[C@H](C)[C@H](NC(=O)[C@@H]1CCCN1C(=O)CNC(=O)[C@H](Cc1ccccc1)NC(=O)[C@H](CC(N)=O)NC(=O)[C@H](CC(N)=O)NC(=O)[C@H](CO)NC(=O)[C@H](CO)NC(=O)[C@H](Cc1c[nH]cn1)NC(=O)[C@H](CCCNC(=N)N)NC(=O)[C@H](CC(C)C)NC(=O)[C@H](Cc1ccccc1)NC(=O)[C@H](CC(N)=O)NC(=O)[C@H](C)NC(=O)[C@H](CC(C)C)NC(=O)[C@H](CCCNC(=N)N)NC(=O)[C@H](CCC(N)=O)NC(=O)[C@@H](NC(=O)[C@H](C)NC(=O)[C@@H]1CSSC[C@H](NC(=O)[C@H](CCCNC(=N)N)NC(=O)[C@H](Cc2c[nH]cn2)NC(=O)[C@H](Cc2c[nH]cn2)NC(=O)[C@H](CCC(=O)O)NC(=O)CC[C@H](NC(=O)CCCCCCCCCCCCCCCCCCC(=O)O)C(=O)O)C(=O)N[C@@H](CC(N)=O)C(=O)N[C@@H]([C@@H](C)O)C(=O)N[C@@H](C)C(=O)N[C@@H]([C@@H](C)O)C(=O)N1)[C@@H](C)O)C(=O)N[C@@H](CC(C)C)C(=O)N1CCC[C@H]1C(=O)N1CCC[C@H]1C(=O)N[C@H](C(=O)N[C@@H](CC(N)=O)C(=O)N[C@H](C(=O)NCC(=O)N[C@@H](CO)C(=O)N[C@@H](CC(N)=O)C(=O)N[C@H](C(=O)N[C@@H](Cc1ccc(O)cc1)C(N)=O)[C@@H](C)O)C(C)C)[C@@H](C)O [Example 58, N-alpha-[(S)-4-Carboxy-4-(19-carboxynonadecanoylamino)butyryl]-Glu-His-His-[Arg1,Arg17]-pramlintide] ({C20 diacid-γGlu}-EHHRCNTATCATQRLANFLRHSSNNFGPILPPTNVGSNTY-NH2; disulfide 5-10) | effectively reducing food intake |
| CC[C@H](C)[C@H](NC(=O)[C@@H]1CCCN1C(=O)CNC(=O)[C@H](Cc1ccccc1)NC(=O)[C@H](CC(N)=O)NC(=O)[C@H](CC(N)=O)NC(=O)[C@H](CO)NC(=O)[C@H](CO)NC(=O)[C@H](Cc1c[nH]cn1)NC(=O)[C@H](Cc1c[nH]cn1)NC(=O)[C@H](CC(C)C)NC(=O)[C@H](Cc1ccccc1)NC(=O)[C@H](CC(N)=O)NC(=O)[C@H](C)NC(=O)[C@H](CC(C)C)NC(=O)[C@H](CCCNC(=N)N)NC(=O)[C@H](CCC(N)=O)NC(=O)[C@@H](NC(=O)[C@H](C)NC(=O)[C@@H]1CSSC[C@H](NC(=O)[C@H](CCCCN)NC(=O)[C@H](CCCNC(=N)N)NC(=O)[C@H](CCCCN)NC(=O)[C@H](CCC(=O)O)NC(=O)CCCCCCCCCCCCCCCCCCC(=O)O)C(=O)N[C@@H](CC(N)=O)C(=O)N[C@@H]([C@@H](C)O)C(=O)N[C@@H](C)C(=O)N[C@@H]([C@@H](C)O)C(=O)N1)[C@@H](C)O)C(=O)N[C@@H](CC(C)C)C(=O)N1CCC[C@H]1C(=O)N1CCC[C@H]1C(=O)N[C@H](C(=O)N[C@@H](CC(N)=O)C(=O)N[C@H](C(=O)NCC(=O)N[C@@H](CO)C(=O)N[C@@H](CC(N)=O)C(=O)N[C@H](C(=O)N[C@@H](Cc1ccc(O)cc1)C(N)=O)[C@@H](C)O)C(C)C)[C@@H](C)O [Example 9, N-alpha-[19-carboxynonadecanoyl]-Glu-Lys-Arg-[His17]-pramlintide] ({C20 diacid}-EKRKCNTATCATQRLANFLHHSSNNFGPILPPTNVGSNTY-NH2; disulfide 5-10) | effectively reducing food intake |
